## Primary screen of a compound library

The chains behind the UniProt entries cited, without tags or fusion partners.
UniProt E9BF75, entry or part of it: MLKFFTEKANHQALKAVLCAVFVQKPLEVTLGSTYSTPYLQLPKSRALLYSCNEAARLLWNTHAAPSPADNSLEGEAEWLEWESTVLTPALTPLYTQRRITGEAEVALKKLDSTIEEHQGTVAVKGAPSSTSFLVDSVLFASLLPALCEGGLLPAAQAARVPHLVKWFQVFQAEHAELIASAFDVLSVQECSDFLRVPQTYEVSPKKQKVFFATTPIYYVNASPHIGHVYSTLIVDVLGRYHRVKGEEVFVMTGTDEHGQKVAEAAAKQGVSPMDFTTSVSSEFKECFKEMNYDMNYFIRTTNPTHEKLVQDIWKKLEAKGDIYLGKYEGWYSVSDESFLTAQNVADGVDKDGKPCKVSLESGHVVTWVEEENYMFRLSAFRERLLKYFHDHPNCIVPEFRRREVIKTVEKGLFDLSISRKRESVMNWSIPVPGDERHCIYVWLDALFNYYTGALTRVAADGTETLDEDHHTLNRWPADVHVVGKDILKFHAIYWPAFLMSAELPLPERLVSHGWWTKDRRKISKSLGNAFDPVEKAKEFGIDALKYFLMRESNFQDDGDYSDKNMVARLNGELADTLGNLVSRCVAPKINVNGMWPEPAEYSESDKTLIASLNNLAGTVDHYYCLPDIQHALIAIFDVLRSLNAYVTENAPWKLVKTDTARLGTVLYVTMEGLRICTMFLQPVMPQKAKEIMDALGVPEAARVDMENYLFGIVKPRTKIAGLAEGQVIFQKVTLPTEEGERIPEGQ

Measurements from “University of Dundee, Small-Polar-MMV Screening Library” (2021), ChEMBL document CHEMBL3988442.

Results are percentages, as filed. The controls that fix the scale are not given in the record; negative values are as filed. Compounds were drawn at random from those tested, without regard to their results.

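Methionyl-tRNA synthetase (putative), Leishmania donovani (UniProt E9BF75). Primary screen of methionyl-tRNA synthetase; the read-out is not stated. The test concentration is not given. Values are per cent inhibition. Size under these conditions: about 68,000 compounds, about 24 of them at 50% or above in at least one test.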

SMILES: COc1ccc(-c2nnsc2C(=O)N2CCN(C(C)=O)CC2)cc1
inhibition: 10.19

SMILES: CC1(C(=O)NC2CCCC2)CCCN(c2ncccn2)C1 (stereo unspecified)
inhibition: 3.226

SMILES: O=C(C1CCOC1)N1CCC2(CC1)Cc1ccccc1CNC2=O (stereo unspecified)
inhibition: 13.45

SMILES: CN(C(=O)c1cccnc1)C1CCCN(CCc2ccccc2)C1 (stereo unspecified)
inhibition: 0.7117

SMILES: CN(CCn1cncc1-c1cnc(N2CCOCC2)nc1)C1CCCC1
inhibition: 13.37

SMILES: CCOCC1CN(C(=O)Cc2ccsc2)Cc2ccnn2C1 (stereo unspecified)
inhibition: -16.83

SMILES: CCc1nc(N)nc(N2CCCC3(CN(C)C(=O)O3)C2)c1C (stereo unspecified)
inhibition: 13.01

SMILES: CC(=O)N1CC2(CCCCN2Cc2ccc(Cl)cc2)Cc2ccccc21 (stereo unspecified)
inhibition: 10.86

SMILES: c1ccc(-c2cc(CN3C[C@@H]4CC[C@H](C3)N(CC3CCC3)C4)on2)cc1
inhibition: 13.77

SMILES: N#Cc1cccc(OCCN2CCC(C(=O)N3CCOCC3)CC2)c1
inhibition: 16.08

SMILES: COc1ccccc1C1(CNc2nnc(C)c(C)c2C#N)CCCC1
inhibition: 35.87

SMILES: CC(C)C(C(=O)N1CCC(N(C)c2cccnn2)CC1)n1cncn1 (stereo unspecified)
inhibition: 5.882

SMILES: CC1=N[C@@]2(CC[C@@H]3CN(C(=O)NC(C)C)C[C@@H]32)C(=O)N1CC1CC1
inhibition: 10.75

SMILES: CC(C)[C@]1(O)CN(C(=O)COCC(N)=O)C[C@H]1C
inhibition: 14.61

SMILES: COC[C@@H]1CCCN1C(=O)c1cc(-c2ccc(OC)cc2)n[nH]1
inhibition: 14.44

SMILES: CC(=O)NCCc1nc(C(C)C)nn1-c1ccncc1C
inhibition: 17.25

SMILES: CCSc1cc(C(=O)NCC(C)(C)N(C)C)ccn1
inhibition: 7.784

SMILES: Cc1ccc(NC2CCN(C(=O)CCNS(C)(=O)=O)CC2)nn1
inhibition: 7.937

SMILES: COCCOc1ccc(CNc2nc3ccccc3o2)cn1
inhibition: 12.77

SMILES: CC(C)Nc1ncnc2c1CCN(C(=O)CN(C)C)CC2
inhibition: -0.6667

SMILES: CCCc1cc(C(=O)N[C@@H](CO)[C@@H](O)c2ccccc2)n(C)n1
inhibition: 7.572

SMILES: COCc1ccccc1C(=O)N1CCCC(n2nc(C)cc2C)C1 (stereo unspecified)
inhibition: 5.164

SMILES: CN(C)CCNC(=O)[C@H]1C[C@@H]2CN(C(=O)NCc3ccccc3)C[C@H]1O2
inhibition: 9.15

SMILES: Cn1nc(C2CCNC2)c2c(C(=O)NC3CC3)cc(C3CC3)nc21 (stereo unspecified)
inhibition: 7.429

SMILES: O=C(N1CCCC1)N1CCN(c2ccc(Cl)nn2)C(=O)C1
inhibition: 5.714

SMILES: O=C(c1[nH]nc(C2CC2)c1Cl)N1CCN(S(=O)(=O)c2ccccc2)CC1
inhibition: 15.96

SMILES: Cc1ccc(NC(=O)C2CCCN2C(=O)C2CC2)nc1 (stereo unspecified)
inhibition: 6.959

SMILES: CCN1CCCC(CNC(=O)C2(c3cccc(Cl)c3)CC2)C1 (stereo unspecified)
inhibition: 20.14

SMILES: Cc1cc(CN(C)C(C(=O)O)c2ccc(C(C)(C)C)cc2)on1 (stereo unspecified)
inhibition: 14.29

SMILES: CCN(CC)Cc1cc(=O)n2c(n1)CN(C(=O)c1ccc[nH]1)CCC2
inhibition: 18.18

SMILES: Cc1ccc(CN2CCOCC2)cc1NC(=O)c1ccsc1
inhibition: 19.93

SMILES: CNc1cccc(C2CCCN(C(C)=O)C2)n1 (stereo unspecified)
inhibition: 6.643

SMILES: CCc1nc(C)c([C@H]2CN(C)C[C@@H]2C(=O)NCc2ccccn2)[nH]1
inhibition: 11.61

SMILES: Cc1n[nH]c(-c2ccc(NC(=O)C(C)(C)N3CCN(C)CC3)cc2)n1
inhibition: 13.09

SMILES: O=C1NCc2ccccc2CC12CCN(Cc1c(F)cccc1Cl)C2 (stereo unspecified)
inhibition: 30.86

SMILES: c1cc(CN2C[C@@H]3OCCN(CCN4CCCC4)[C@@H]3C2)cs1
inhibition: 8.901

3 of the entries, repeated:

SMILES,inhibition
CCSc1cc(C(=O)NCC(C)(C)N(C)C)ccn1,7.784
O=C(N1CCCC1)N1CCN(c2ccc(Cl)nn2)C(=O)C1,5.714
CC(=O)N1CC2(CCCCN2Cc2ccc(Cl)cc2)Cc2ccccc21 (stereo unspecified),10.86